In the supplement of paper PMC10849652:
The other results are listed elsewhere or left out.

The chains behind the UniProt entries cited, without tags or fusion partners. Where a name states a change or a piece, a line headed by the entry shows the natural chain unless it says otherwise.
UniProt Q16651: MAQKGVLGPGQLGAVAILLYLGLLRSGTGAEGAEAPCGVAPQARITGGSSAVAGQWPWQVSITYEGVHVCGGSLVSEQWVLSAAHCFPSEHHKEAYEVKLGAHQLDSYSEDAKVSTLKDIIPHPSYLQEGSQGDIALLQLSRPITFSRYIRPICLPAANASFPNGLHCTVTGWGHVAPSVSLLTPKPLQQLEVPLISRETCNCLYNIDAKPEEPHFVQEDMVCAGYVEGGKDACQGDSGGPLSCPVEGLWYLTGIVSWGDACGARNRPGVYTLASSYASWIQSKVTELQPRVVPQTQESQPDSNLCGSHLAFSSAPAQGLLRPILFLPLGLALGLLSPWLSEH
UniProt Q16378: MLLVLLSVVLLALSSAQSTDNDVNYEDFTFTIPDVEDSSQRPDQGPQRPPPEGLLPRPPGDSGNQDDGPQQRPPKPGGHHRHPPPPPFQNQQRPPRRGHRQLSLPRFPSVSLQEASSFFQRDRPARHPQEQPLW
UniProt Q9ULL5: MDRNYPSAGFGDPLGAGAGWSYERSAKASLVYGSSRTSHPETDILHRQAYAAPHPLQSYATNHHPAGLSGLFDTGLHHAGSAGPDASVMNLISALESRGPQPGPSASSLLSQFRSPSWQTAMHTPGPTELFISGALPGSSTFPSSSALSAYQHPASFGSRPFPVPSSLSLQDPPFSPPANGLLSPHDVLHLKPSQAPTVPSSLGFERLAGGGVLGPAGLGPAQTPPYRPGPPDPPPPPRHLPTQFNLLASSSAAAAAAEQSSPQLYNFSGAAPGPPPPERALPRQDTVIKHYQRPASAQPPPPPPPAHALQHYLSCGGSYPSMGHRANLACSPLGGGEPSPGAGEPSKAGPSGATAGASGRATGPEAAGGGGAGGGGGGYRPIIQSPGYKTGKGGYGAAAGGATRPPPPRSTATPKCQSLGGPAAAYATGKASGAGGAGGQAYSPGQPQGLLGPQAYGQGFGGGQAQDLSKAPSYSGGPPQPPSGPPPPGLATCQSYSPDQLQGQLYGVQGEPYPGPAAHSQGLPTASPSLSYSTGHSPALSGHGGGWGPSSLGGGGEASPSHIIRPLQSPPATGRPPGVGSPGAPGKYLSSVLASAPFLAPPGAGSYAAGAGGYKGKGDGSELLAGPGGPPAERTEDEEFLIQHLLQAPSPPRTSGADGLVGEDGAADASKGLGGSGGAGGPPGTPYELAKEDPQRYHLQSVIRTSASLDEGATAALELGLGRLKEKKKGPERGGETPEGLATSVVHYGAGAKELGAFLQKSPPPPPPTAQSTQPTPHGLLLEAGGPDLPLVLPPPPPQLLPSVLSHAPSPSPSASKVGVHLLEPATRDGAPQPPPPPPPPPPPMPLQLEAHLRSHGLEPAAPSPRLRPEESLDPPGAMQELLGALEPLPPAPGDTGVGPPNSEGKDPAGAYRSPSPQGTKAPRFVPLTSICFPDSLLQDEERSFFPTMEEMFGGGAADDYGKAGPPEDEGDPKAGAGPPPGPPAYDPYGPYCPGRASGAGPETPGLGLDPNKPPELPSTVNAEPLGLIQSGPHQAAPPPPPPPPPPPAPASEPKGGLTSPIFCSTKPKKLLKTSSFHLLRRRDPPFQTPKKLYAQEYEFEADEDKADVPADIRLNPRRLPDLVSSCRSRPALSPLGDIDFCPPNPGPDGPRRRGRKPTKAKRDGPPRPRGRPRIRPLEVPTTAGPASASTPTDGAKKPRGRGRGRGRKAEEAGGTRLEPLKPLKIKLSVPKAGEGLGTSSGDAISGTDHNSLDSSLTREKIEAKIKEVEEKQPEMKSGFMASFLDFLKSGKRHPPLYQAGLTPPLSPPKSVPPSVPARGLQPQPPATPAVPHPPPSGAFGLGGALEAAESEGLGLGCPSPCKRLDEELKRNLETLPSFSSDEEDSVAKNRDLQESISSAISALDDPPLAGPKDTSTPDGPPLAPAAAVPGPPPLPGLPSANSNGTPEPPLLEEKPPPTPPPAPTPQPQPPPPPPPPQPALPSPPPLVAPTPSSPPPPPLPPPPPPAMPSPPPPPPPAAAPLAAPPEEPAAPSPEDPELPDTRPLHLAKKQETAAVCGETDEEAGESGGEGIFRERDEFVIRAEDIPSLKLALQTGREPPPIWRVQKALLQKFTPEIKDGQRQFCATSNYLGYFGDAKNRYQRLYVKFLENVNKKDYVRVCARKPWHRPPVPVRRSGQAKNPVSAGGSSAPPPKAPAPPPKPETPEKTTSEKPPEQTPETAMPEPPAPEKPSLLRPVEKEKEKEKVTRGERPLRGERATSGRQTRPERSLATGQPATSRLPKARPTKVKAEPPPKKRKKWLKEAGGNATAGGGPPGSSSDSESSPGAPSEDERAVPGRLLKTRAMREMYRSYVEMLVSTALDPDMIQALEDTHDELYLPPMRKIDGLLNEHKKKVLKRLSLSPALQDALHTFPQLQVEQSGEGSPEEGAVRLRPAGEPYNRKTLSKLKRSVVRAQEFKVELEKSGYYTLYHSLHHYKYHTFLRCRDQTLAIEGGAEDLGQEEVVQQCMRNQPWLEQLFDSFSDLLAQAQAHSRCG
UniProt Q8WV60: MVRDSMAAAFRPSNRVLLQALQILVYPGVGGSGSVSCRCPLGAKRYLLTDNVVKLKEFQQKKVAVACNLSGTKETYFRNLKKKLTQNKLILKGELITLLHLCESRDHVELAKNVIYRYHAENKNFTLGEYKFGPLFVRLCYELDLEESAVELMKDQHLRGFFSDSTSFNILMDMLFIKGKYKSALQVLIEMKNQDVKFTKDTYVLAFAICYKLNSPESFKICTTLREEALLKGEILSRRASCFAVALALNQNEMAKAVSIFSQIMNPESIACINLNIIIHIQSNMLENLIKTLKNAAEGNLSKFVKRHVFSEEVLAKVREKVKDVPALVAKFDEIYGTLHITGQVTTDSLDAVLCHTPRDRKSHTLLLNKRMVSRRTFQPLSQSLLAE
UniProt Q9BRX8: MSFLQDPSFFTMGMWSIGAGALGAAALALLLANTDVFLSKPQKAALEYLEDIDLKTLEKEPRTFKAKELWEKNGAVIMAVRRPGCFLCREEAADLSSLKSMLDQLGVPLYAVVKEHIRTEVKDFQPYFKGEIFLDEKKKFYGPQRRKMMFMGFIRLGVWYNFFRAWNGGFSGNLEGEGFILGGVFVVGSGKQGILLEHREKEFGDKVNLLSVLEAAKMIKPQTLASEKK
UniProt Q5THK1: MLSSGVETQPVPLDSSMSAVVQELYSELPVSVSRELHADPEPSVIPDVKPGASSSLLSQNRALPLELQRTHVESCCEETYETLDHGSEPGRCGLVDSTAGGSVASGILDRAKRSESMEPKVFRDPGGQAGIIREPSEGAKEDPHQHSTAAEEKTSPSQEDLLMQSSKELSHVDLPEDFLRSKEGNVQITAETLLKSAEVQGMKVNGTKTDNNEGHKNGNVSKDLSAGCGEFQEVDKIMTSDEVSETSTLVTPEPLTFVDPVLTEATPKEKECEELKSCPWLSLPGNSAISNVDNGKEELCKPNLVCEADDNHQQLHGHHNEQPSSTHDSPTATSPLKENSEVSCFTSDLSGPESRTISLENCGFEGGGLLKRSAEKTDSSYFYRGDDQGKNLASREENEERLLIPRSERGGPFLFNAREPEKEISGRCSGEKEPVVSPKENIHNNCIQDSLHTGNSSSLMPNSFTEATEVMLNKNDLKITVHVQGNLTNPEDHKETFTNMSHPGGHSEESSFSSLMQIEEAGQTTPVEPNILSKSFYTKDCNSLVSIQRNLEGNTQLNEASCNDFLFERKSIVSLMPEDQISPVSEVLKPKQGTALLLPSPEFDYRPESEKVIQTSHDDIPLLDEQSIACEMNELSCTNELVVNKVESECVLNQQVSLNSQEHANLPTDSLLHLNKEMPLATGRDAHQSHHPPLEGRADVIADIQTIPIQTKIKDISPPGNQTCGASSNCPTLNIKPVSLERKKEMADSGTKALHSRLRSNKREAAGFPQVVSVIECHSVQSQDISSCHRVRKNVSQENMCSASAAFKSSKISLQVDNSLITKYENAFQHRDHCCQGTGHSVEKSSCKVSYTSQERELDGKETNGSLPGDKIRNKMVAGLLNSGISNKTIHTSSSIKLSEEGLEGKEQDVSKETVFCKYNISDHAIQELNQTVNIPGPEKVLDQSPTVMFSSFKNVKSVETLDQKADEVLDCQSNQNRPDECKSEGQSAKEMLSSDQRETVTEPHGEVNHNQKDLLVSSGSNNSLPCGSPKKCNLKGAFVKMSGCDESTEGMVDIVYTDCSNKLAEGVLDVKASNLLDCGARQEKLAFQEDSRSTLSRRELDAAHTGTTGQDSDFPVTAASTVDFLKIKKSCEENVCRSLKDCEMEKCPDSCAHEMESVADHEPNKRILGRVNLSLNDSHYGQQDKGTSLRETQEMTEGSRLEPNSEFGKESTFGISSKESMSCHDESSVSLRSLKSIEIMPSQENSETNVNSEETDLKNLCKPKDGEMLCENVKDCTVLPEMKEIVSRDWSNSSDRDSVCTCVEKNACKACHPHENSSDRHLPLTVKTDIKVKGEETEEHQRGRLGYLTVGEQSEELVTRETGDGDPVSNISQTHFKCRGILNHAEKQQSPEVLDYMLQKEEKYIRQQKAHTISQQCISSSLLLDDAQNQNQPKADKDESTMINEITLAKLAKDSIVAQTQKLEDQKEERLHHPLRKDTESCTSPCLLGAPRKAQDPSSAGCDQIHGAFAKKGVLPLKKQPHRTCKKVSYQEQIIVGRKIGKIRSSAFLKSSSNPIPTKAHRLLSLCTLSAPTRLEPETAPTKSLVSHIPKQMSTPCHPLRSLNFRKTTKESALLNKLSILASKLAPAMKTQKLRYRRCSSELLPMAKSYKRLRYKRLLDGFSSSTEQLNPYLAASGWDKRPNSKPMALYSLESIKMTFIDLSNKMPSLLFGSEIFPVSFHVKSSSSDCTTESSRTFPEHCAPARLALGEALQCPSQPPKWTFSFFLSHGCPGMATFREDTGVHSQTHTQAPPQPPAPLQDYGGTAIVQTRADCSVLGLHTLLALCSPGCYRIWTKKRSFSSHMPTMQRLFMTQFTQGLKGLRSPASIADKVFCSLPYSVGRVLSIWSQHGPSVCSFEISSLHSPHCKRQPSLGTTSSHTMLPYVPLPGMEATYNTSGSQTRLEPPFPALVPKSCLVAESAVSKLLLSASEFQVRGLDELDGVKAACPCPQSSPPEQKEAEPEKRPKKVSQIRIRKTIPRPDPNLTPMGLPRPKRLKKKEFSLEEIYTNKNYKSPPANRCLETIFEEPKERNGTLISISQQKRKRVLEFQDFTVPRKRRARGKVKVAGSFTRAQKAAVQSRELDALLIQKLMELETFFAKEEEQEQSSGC
UniProt Q86Y79: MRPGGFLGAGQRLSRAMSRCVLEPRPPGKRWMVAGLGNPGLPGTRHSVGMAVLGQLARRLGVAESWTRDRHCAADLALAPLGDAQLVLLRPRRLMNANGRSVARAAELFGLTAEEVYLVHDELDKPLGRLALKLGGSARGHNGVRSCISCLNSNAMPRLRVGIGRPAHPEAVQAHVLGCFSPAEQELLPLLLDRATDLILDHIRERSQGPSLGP
UniProt O14668: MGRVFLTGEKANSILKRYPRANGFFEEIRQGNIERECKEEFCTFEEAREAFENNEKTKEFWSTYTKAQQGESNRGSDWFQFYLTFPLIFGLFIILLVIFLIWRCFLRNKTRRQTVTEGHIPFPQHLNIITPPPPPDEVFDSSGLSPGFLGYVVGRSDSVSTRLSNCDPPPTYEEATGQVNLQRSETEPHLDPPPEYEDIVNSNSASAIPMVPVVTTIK
UniProt O75365, whole entry, looked up: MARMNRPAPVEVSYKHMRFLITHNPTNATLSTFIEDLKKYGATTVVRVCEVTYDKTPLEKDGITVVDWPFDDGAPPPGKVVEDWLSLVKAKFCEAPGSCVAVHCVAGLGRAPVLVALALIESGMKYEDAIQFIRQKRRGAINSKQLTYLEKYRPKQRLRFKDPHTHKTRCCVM
UniProt P79522: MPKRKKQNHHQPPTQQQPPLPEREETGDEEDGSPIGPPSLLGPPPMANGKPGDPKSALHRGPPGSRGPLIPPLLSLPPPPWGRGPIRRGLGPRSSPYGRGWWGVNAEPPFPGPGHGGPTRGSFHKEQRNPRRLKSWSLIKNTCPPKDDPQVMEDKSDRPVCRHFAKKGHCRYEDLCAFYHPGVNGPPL
UniProt P43115: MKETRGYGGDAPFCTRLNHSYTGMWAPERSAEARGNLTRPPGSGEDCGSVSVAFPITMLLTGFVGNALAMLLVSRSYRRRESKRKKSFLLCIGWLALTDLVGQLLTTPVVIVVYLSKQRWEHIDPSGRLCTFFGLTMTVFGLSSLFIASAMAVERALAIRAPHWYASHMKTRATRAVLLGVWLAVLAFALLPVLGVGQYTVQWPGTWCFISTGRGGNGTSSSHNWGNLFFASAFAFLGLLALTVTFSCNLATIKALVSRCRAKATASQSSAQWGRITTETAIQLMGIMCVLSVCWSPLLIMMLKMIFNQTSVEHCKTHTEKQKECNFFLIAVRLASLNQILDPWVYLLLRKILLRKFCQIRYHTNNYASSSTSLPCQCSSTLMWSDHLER

Compound: CC1=C(C=C(C=C1)NC(=O)C2=CC(=CC=C2)N(C)C)NC(=O)C3=CC=C(C=C3)O
Test: log2 fold change, soluble protein after heating vs DMSO (PISA); higher = thermal stabilisation; K562 lysate, 10 uM; active = over 0.2 and 3.5 SD of the protein, either way, in both replicates (recomputed)
How it was run: (§1)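 A 30 min treatment with 10 μM compound was applied to crude K562 extract at 1 mg/mL protein in PBS pH 7.4 with 1 mM MgCl2. Heating for 3 min spanned 48°C-58°C, after which aliquots were pooled, adjusted to 0.5% NP-40 at 4°C and spun at 21,000xg for 90 min. TMTpro 16plex LC-MS/MS of the supernatant, with channel sums equalised, gave values recorded as log-two fold change in thermal stability against solvent controls, from duplicates.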

Target	log2 fold change
PRSS8 (UniProt Q16651)	inactive: -0.198
PSMD4 (UniProt Q5VWC4)	inactive: 0.021
PSIP1 (UniProt V9GYT7)	inactive: 0.063
PRR4 (UniProt Q16378)	inactive: 0.1
PRR12 (UniProt Q9ULL5)	inactive: -0.017
PTCD2 (UniProt Q8WV60)	inactive: 0.045
PSEN2 (UniProt P49810)	inactive: -0.006
PRXL2A (UniProt Q9BRX8)	inactive: -0.097
PRR14L (UniProt Q5THK1)	inactive: -0.038
PTRH1 (UniProt Q86Y79)	inactive: 0.111
PTPA (UniProt Q5T948)	inactive: -0.278
PTGES3 isoform 4 (UniProt Q15185)	inactive: 0.292
PRRG1 (UniProt O14668)	inactive: -0.033
PRRC2B (UniProt H0Y412)	inactive: 0.051
PSMA3 (UniProt H0YJ03)	inactive: 0.007

Compound: CC1=CC=C(C=C1)SC2=C3C=C(SC3=CN=C2)C(=O)N
Test: as above
How it was run: as §1

Target	log2 fold change
PTP4A3 (UniProt O75365)	inactive: 0.101
PTPN11, A0A0U1RRI0	inactive: 0.111
PRR4 (UniProt Q16378)	inactive: -0.23
PSMC5 (UniProt J3KRP2)	inactive: -0.036
PTCD2 (UniProt Q8WV60)	inactive: -0.173
PSME3 (UniProt K7EMD0)	inactive: 0.033
PWWP2B (UniProt Q6NUJ5)	inactive: 0.1
PTBP1, A0A0U1RRM4	inactive: -0.059
PTPA (UniProt Q5T948)	inactive: 0.07
PRR3 (UniProt P79522)	inactive: -0.096
PTPA (UniProt Q5T949)	inactive: -0.132
PRSS2 (UniProt P07478)	inactive: 0.222
PSMA3 (UniProt H0YJ03)	inactive: -0.006
PTGER3 isoform 2 (UniProt P43115)	inactive: 0.017
